# In PubChem BioAssay AID720504 (National Center for Advancing Translational Sciences (NCATS), 2013):
# The chains behind the UniProt entries cited, without tags or fusion partners.
# UniProt P53350, whole entry, looked up: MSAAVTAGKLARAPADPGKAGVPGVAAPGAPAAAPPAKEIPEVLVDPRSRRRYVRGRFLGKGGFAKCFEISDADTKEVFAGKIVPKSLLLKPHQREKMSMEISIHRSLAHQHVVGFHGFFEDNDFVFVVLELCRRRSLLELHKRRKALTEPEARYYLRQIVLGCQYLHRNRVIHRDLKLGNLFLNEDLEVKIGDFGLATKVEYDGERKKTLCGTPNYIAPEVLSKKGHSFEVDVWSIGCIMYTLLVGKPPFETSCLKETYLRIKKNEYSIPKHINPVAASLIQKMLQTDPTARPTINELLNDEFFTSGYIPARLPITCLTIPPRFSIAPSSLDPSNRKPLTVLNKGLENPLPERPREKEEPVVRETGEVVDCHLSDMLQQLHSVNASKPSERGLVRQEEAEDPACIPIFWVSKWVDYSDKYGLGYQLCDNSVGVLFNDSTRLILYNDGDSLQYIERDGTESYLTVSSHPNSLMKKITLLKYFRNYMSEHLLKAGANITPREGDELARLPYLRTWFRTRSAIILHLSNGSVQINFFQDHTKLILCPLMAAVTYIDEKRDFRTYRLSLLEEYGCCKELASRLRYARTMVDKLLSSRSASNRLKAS
# Screen size: about 360,000 compounds; about 10,000 (2.8%) were called active. The shares of active, inactive and inconclusive entries below differ from those in the screen. Calls follow the shape of the dose curve; as a rule, active = well fitted inhibition curve with a large enough effect; inconclusive = small, poorly fitted or top-dose-only effect; inactive = flat fitted curve, though single readings scatter. Potencies of inconclusive entries are doubtful fits and often do not repeat.
# Molecular target: Serine/threonine-protein kinase PLK1 (Homo sapiens) (UniProt P53350)
# Test: qHTS for Inhibitors of PLK1-PDB (polo-like kinase 1 - polo-box domain): Primary Screen; also: nearly all actives have a fitted effect of over 65% in size; as to max response, negative = inhibition: series mostly up to about 57 µM
# Settings: Plk1 PBD binding of FITC phosphopeptide, fluorescence polarization
# % is scaled to controls: 0 for no effect and ±100 for the full control effect; potency is read from the fitted curve at half-maximal effect.
SMILES,Potency,"max response, negative = inhibition"
Cc1cc(C)cc(OCC(=O)NNC(=O)C2CCCO2)c1 (stereo unspecified),"inconclusive: 26.7 µM [inhibitor, single point]",
C=CCc1cccc(OC)c1OCCOCCNCCO,,inactive: -0.21%
COc1cc(C(=O)O)nc(OC)n1,"inconclusive: 18.9 µM [inhibitor, partial curve]",
COCc1[nH]nc2c1C(c1ccccc1OC)C(C#N)=C(N)O2 (stereo unspecified),"inconclusive: 5.97 µM [inhibitor, partial curve]",
S=C(NCc1ccco1)N1CCN(Cc2ccc(Cl)cc2Cl)CC1,"inconclusive: 15 µM [inhibitor, partial curve, poor fit]",
CC1(C)Oc2ccc3ccc(=O)oc3c2C(/C=N/O)C1=O (stereo unspecified),"inconclusive: 5.32 µM [inhibitor, single point]",
Cc1ccc(-c2cc(C(=O)NCC3CCCO3)c3ccccc3n2)cc1C (stereo unspecified),"inconclusive: 18.9 µM [inhibitor, single point]",
O=C(N/C=C\c1ccccc1)NCc1ccc(Cl)cc1Cl,active: 21.2 µM,
Cc1cc(O)c(C(C)C)cc1NC(=S)Nc1cc(C(C)C)c(O)cc1C,"inconclusive: 26.7 µM [inhibitor, single point]",
Cc1ccc2c(c1)sc1nc(=O)ccn12,active: 15 µM,
COC(=O)c1sc2[nH]c(=S)n(N)c(=O)c2c1C,"inconclusive: 15 µM [inhibitor, partial curve, poor fit]",
NC(N)=N/N=C(\N=Nc1ccccc1)c1cccc2cccnc12,,inactive: -0.142%
COc1ccc2c(c1)c(=O)oc1c(C)c(OC(C)C(=O)N[C@@H](Cc3c[nH]c4ccc(O)cc34)C(=O)O)ccc12 (stereo partly specified),,inactive: -6.73%
Cc1ccc(S(=O)(=O)Oc2cccc(/C=N/Nc3ccc(C(=O)O)cc3)c2)cc1,"inconclusive: 21.2 µM [inhibitor, single point]",
COc1ccc(/C=C2\Sc3ccc(C(=O)NCC4CCCO4)cc3N(C)C2=O)cc1 (stereo unspecified),"inconclusive: 21.2 µM [inhibitor, single point]",
CC(Sc1nc2scc(-c3ccccc3)c2c(=O)[nH]1)C(=O)NC(N)=O (stereo unspecified),"inconclusive: 29.9 µM [inhibitor, partial curve]",
Cc1cccc(Cl)c1NC(=S)N1CCN(c2ccc([N+](=O)[O-])cn2)CC1,,inactive: -14.5%
CCOC(=O)C1(Cc2ccccc2)CCCN(C(=O)c2cnn(CC)c2)C1 (stereo unspecified),active: 23.8 µM,
CC(C)c1ccccc1NC(=O)Nc1nc(C(N)Cc2ccc(C(F)(F)F)cc2)cs1 (stereo unspecified),,inactive: -1.63%
CCN(CC)CCn1c2ccccc2c2n[nH]c(=S)nc21,"inconclusive: 26.7 µM [inhibitor, partial curve]",
N#Cc1ccccc1OCc1cn(CC(=O)c2ccc(O)cc2)nn1,active: 23.8 µM,
O=C(NC(=S)Nc1nc(-c2ccc([N+](=O)[O-])cc2)cs1)c1ccco1,,inactive: -23.4%
CCn1c2ccccc2c2cc(NC(=O)c3ccccc3-c3ccccc3C(=O)O)ccc21,"inconclusive: 29.9 µM [inhibitor, single point]",
COC(=O)NC(Nc1sc2c(c1C(N)=O)CCCC2)(C(=O)OC)C(F)(F)F (stereo unspecified),"inconclusive: 21.2 µM [inhibitor, partial curve]",

# Given with tabs: entries from further up.
SMILES	Potency	max response, negative = inhibition
CC1(C)Oc2ccc3ccc(=O)oc3c2C(/C=N/O)C1=O (stereo unspecified)	inconclusive: 5.32 µM [inhibitor, single point]	
CC(Sc1nc2scc(-c3ccccc3)c2c(=O)[nH]1)C(=O)NC(N)=O (stereo unspecified)	inconclusive: 29.9 µM [inhibitor, partial curve]	
Cc1cccc(Cl)c1NC(=S)N1CCN(c2ccc([N+](=O)[O-])cn2)CC1		inactive: -14.5%

# The list goes on:

SMILES,Potency,"max response, negative = inhibition"
O=[N+]([O-])c1ccc(O)c(C=Nc2ccc3c(c2)OCCO3)c1,,inactive: 1.47%
Cc1nnc(-c2ccccc2)o1,"inconclusive: 33.6 µM [inhibitor, partial curve]",
CN(CC(=O)NCc1cccs1)S(=O)(=O)c1cccc2cccnc12,,inconclusive: -30.3% [inhibitor]
Nc1c(C(=O)NCc2ccco2)sc2nc3c(cc12)C(=O)CCC3,"inconclusive: 22.4 µM [inhibitor, partial curve]",
CN(Cc1ccccc1)c1nnc(N)s1,"inconclusive: 37.7 µM [inhibitor, single point]",
CC1CCc2c(sc(Nc3nc4c(F)cccc4s3)c2C(N)=O)C1 (stereo unspecified),,inactive: -6.04%
CCc1ccc(N2CC(C(=O)N/N=C/c3ccccc3)CC2=O)cc1 (stereo unspecified),active: 26.7 µM,
CCOc1ccc(C2NC(=O)c3ccccc3O2)cc1OCC (stereo unspecified),,inconclusive: -32.3% [inhibitor]
CCC(C)(C)C1CCC2(CC1)NC(=O)N(CC(=O)N1CCN(C(=O)c3ccco3)CC1)C2=O (stereo unspecified),,inactive: -4.59%
Cc1cc(C)nc(Nc2ccc(Br)cc2C(=O)O)n1,"inconclusive: 23.8 µM [inhibitor, partial curve]",
COc1ccccc1/C=C1\SC(=S)N(NS(=O)(=O)c2ccc(C)cc2)C1=O,active: 26.7 µM,
CC(C)CC(OC(=O)c1cccs1)C(=O)NCc1ccco1 (stereo unspecified),"inconclusive: 26.7 µM [inhibitor, partial curve]",
CCN(CC)c1ccc2nc3ccccc3[n+](CC)c2c1,,inconclusive: -30.1% [inhibitor]
O=C(O)c1ccccc1-c1ccc(/C=c2\sc3nc4cc(Br)cnc4n3c2=O)o1,"inconclusive: 2.12 µM [inhibitor, partial curve]",
COc1cccc(CN2CC(C(=O)NC3CCC3)CCC2=O)c1 (stereo unspecified),"inconclusive: 37.7 µM [inhibitor, single point]",
CC(CC(=O)NCC1CCCO1)c1ccccc1 (stereo unspecified),"inconclusive: 8.44 µM [inhibitor, partial curve]",
CCOC(=O)N1CCN(C(=O)CN2C(=O)NC(C)(c3ccc4ccccc4c3)C2=O)CC1 (stereo unspecified),,inactive: -8.1%
CCC1=NN2C(=N)/C(=C\c3cccn3-c3c(C)cccc3C)C(=O)N=C2S1,"inconclusive: 37.7 µM [inhibitor, single point]",
Cc1[nH]n2c(=O)c3c(nc2c1-c1ccccc1)CCCC3,,inactive: -1.88%
OCCOCCOc1ccccc1OCCOCCO,,inactive: -3.02%
CC(C)C(NC(=O)/C(=C/c1ccco1)NC(=O)c1ccc(Br)o1)C(=O)O (stereo unspecified),,inactive: -21%
CCCSc1nc(N)c2c3c(sc2n1)CN(C)CC3,"inconclusive: 26.7 µM [inhibitor, partial curve]",
COc1cccc(OCC(O)CN2CCN(c3ncccn3)CC2)c1 (stereo unspecified),,inactive: -7.59%
Cc1ccc(C)c2nc3sc(C(=O)N4CCCc5ccccc54)c(N)c3cc12,"inconclusive: 23.8 µM [inhibitor, single point]",

SMILES,Potency,"max response, negative = inhibition"
COc1cc2[nH]cc(C(=O)NCCc3ccccc3)c(=O)c2cc1OC,"inconclusive: 8.44 µM [inhibitor, single point]",
COCCCNc1c2c3c(cccc3[nH]c1=O)C(=O)c1ccccc1-2,active: 0.377 µM,
O=c1cc(CSc2nnc3ccccn23)c2c(ccc3ccccc32)o1,active: 42.3 µM,
Cc1ccccc1-c1nc(CS(=O)CC(=O)NC(C)CCc2ccccc2)c(C)o1 (stereo unspecified),"inconclusive: 18.9 µM [inhibitor, partial curve, poor fit]",
O=C(CSc1ccc([N+](=O)[O-])cc1)Nc1ccccc1N1CCOCC1,"inconclusive: 33.6 µM [inhibitor, single point]",
CCn1ccc(C(=O)NC2=C(C#N)CCC2)n1,"inconclusive: 4.74 µM [inhibitor, full curve]",
O=C(NCC1CCCO1)c1cccc2c1C(=O)c1ccc(N3CCC(Cc4ccccc4)CC3)cc1S2(=O)=O (stereo unspecified),"inconclusive: 37.7 µM [inhibitor, single point]",
Cc1ccc2c(c1)[C@H]1[C@H](CO2)[C@H](c2ccccc2)[C@]2(C)C(=O)Nc3ccc(Cl)cc3C(=O)N12,,inactive: 3.7%
CC1CCN(C(=S)c2cn(Cc3ccccc3F)c3ccccc23)CC1,"inconclusive: 26.7 µM [inhibitor, partial curve]",
COc1ccc(CCNc2nc(C)cc(=O)[nH]2)cc1OC,,inactive: 2.86%
Cc1nc(CS(=O)c2ccc(Cl)cc2)cc(N2CCOCC2)n1 (stereo unspecified),"inconclusive: 29.9 µM [inhibitor, partial curve]",
O=C(NCc1n[nH]c(=S)n1-c1cccc(Cl)c1)c1cccs1,"inconclusive: 37.7 µM [inhibitor, partial curve]",
N#C/C(=C(/O)CCl)c1nc(-c2ccccc2)cs1,"inconclusive: 37.7 µM [inhibitor, single point]",
Cc1ccc(S(=O)(=O)Nc2ccccc2C(=O)Nc2nc(-c3ccc(F)cc3)cs2)cc1,active: 26.7 µM,
S=c1[nH]cc(Cc2ccccc2)s1,"inconclusive: 26.7 µM [inhibitor, partial curve]",
CCOC(=O)C1CCCN(CC(=O)Nc2c(C(=O)OC)[nH]c3ccc(Cl)cc23)C1 (stereo unspecified),,inactive: -1.22%
Cc1ccc(S(=O)(=O)N2[C@@H](c3ccc(C(C)C)cc3)C(C(=O)O)=C[C@H]2C(C)(C)C)cc1,"inconclusive: 23.8 µM [inhibitor, partial curve]",
O=C(C[n+]1cc(-c2ccccc2)n2c1CCC2)Nc1nc(-c2ccccc2)cs1,,inactive: -7.95%
CCOc1cc(/C=C2\CCC/C(=C\c3cc(Cl)c(O)c(OCC)c3)C2=O)cc(Cl)c1O,"inconclusive: 29.9 µM [inhibitor, single point]",
CCCS(=O)(=O)c1c(S(=O)(=O)CCC)c2c(C)cccn2c1C(=O)OC,"inconclusive: 26.7 µM [inhibitor, partial curve]",
COc1ccc(CC(=O)NCc2nnc(SCc3ccc([N+](=O)[O-])cc3)n2C)cc1,,inactive: 5.46%
Cc1cc(C)nc(SCC(=O)NC2=NC(=O)C(C)S2)n1 (stereo unspecified),"inconclusive: 23.8 µM [inhibitor, partial curve]",
COc1ccccc1NC(=S)NC(=O)/C=C/c1ccco1,"inconclusive: 23.8 µM [inhibitor, partial curve]",
